Results are given in words; binding and its absence hold for the method and conditions named. In cells and extracts the contact can be indirect. These calls come from enrichment with a bait or labelling near it, and not all partners need be listed.
Target: T1, HDAC7 (UniProt Q8WUI4)
T1 sequence: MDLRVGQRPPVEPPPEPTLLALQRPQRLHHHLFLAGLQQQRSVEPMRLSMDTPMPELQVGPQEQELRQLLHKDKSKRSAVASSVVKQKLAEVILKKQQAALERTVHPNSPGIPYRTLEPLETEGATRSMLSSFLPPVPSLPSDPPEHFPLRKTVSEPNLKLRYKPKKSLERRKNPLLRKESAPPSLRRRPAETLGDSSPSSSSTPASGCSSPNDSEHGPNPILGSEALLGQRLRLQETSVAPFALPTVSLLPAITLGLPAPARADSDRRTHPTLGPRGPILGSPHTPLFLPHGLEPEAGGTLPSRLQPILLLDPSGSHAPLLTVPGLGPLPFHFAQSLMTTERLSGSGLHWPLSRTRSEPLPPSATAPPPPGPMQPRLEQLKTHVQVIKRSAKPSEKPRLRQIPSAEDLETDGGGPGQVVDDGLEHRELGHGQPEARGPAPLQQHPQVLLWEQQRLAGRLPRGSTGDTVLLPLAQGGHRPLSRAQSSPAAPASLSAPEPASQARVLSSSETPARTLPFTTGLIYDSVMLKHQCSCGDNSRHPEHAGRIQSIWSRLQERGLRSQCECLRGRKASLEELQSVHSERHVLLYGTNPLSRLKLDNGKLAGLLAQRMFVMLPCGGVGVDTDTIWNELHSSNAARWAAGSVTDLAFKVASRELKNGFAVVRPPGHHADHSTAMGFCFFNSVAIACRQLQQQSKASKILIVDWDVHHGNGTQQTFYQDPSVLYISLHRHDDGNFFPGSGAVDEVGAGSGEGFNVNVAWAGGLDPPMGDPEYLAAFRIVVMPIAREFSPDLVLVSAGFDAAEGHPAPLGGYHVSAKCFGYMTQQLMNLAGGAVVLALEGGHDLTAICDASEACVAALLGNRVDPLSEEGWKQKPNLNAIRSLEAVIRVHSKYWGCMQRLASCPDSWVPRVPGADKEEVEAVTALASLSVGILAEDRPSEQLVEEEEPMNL
Assay: affinity purification with mass spectrometry; HDAC7 immunoprecipitation, liquid chromatography coupled with tandem mass spectrometry

The chains behind the UniProt entries cited, without tags or fusion partners. Residues count along the entry.
UniProt O75592: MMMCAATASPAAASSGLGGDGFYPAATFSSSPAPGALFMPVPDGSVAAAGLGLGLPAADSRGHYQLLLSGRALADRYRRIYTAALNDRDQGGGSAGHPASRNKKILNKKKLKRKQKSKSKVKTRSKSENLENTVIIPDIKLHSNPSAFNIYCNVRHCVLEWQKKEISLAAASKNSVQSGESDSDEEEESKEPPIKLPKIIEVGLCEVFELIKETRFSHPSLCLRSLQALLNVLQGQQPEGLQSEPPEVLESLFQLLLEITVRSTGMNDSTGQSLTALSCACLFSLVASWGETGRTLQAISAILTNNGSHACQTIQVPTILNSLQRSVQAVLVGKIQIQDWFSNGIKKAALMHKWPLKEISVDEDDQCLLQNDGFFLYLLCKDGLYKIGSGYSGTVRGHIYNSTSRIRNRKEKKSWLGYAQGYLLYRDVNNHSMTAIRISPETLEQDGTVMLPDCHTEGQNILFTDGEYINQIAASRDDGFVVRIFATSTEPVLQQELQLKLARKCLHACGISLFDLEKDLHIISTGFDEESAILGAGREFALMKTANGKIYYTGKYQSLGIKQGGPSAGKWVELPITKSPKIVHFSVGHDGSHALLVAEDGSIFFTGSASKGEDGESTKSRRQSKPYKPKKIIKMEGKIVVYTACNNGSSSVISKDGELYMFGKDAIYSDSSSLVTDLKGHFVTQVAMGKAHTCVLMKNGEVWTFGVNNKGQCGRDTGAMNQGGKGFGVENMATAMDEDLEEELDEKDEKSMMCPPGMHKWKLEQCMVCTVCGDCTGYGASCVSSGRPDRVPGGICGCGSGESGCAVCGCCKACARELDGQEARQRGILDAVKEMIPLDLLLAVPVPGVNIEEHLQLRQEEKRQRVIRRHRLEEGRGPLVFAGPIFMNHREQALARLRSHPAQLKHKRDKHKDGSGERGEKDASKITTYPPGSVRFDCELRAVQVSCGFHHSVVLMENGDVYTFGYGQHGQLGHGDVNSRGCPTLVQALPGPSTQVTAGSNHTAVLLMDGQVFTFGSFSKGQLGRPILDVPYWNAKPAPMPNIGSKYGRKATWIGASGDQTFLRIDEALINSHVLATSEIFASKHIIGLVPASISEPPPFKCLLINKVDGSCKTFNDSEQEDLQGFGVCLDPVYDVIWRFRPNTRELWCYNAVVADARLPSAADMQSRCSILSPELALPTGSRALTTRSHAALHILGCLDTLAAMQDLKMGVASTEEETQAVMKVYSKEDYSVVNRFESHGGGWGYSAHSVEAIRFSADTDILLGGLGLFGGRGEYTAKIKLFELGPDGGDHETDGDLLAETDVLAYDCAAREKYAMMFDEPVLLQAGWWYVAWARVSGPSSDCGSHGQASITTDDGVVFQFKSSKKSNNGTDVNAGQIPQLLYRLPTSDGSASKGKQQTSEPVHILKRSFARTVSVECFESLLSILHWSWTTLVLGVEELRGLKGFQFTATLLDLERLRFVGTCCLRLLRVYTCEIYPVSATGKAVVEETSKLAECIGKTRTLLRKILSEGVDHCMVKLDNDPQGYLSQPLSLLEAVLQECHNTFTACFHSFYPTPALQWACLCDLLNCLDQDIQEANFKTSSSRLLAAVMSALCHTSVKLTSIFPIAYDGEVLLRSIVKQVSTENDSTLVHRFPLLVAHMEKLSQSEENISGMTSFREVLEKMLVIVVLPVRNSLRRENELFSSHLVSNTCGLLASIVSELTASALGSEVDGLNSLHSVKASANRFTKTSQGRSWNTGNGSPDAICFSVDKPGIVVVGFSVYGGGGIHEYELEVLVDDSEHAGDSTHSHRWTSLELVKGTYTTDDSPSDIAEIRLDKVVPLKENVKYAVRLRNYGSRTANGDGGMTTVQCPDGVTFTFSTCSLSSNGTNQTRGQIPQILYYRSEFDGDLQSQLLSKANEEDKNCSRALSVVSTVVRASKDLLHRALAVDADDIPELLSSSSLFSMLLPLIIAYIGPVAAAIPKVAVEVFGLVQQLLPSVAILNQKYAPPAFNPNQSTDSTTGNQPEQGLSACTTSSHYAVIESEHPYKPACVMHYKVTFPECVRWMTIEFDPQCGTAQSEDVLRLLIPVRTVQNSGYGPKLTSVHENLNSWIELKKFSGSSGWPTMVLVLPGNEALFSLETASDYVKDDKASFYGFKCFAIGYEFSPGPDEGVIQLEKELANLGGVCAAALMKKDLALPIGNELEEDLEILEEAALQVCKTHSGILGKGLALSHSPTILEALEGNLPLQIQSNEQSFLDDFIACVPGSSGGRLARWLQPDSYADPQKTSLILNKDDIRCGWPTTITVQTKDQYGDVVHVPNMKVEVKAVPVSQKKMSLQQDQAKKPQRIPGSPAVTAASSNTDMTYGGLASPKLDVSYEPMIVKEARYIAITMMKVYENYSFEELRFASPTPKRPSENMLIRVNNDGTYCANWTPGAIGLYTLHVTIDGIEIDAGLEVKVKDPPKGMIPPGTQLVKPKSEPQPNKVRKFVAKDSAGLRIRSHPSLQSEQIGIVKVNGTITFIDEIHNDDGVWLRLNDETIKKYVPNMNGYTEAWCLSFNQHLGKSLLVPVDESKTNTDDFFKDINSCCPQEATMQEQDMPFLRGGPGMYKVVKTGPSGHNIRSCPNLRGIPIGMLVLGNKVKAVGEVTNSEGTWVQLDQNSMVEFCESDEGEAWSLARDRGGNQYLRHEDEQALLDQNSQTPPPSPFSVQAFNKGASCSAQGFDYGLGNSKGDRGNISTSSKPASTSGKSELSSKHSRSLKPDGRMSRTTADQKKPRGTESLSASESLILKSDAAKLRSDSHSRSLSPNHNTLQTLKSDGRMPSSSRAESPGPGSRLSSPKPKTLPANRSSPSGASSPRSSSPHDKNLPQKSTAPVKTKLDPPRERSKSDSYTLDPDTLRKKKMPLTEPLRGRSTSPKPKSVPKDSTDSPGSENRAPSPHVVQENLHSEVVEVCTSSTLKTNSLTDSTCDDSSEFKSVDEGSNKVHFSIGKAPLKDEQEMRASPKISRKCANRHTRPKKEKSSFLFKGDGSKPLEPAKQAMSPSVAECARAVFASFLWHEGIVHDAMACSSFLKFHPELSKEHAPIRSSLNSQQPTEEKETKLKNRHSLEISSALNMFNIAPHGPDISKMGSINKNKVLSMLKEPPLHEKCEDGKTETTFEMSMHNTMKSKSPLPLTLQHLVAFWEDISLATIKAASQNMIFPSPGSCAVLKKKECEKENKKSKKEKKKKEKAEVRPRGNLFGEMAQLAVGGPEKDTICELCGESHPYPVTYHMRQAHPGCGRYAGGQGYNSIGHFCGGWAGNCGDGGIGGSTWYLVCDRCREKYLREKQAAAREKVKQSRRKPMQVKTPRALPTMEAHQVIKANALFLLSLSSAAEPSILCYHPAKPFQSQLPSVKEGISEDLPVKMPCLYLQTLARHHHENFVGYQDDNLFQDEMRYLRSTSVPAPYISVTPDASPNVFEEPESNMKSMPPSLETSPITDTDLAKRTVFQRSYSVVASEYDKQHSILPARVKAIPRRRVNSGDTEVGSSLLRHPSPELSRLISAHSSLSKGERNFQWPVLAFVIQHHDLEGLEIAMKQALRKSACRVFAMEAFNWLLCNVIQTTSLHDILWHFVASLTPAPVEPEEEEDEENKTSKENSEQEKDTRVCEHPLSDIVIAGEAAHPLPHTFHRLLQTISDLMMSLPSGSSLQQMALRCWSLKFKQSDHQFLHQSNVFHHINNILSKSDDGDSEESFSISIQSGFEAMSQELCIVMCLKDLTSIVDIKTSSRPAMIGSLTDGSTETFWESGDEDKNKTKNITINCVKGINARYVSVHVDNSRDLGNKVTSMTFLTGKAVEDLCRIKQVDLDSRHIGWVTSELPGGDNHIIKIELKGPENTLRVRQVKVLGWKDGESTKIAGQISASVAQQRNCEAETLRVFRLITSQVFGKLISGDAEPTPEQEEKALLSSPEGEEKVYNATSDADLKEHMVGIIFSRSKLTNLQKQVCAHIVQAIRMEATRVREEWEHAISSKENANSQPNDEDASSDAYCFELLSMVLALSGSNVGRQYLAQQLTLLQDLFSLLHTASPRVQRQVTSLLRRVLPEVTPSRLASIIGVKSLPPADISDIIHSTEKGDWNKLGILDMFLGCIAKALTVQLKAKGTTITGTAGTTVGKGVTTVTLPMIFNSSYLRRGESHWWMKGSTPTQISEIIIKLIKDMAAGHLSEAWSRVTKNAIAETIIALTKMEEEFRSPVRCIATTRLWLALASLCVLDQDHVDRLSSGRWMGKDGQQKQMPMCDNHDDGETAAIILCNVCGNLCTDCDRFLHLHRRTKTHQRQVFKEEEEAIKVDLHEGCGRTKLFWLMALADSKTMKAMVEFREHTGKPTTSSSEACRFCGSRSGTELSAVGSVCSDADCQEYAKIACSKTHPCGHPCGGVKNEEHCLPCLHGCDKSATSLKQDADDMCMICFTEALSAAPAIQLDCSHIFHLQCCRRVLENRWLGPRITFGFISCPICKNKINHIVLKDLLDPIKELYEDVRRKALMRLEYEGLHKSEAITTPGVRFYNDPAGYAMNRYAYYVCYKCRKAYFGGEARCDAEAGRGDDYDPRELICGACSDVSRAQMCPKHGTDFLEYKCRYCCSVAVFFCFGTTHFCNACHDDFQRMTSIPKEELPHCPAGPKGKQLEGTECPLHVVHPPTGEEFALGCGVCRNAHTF
UniProt Q13263: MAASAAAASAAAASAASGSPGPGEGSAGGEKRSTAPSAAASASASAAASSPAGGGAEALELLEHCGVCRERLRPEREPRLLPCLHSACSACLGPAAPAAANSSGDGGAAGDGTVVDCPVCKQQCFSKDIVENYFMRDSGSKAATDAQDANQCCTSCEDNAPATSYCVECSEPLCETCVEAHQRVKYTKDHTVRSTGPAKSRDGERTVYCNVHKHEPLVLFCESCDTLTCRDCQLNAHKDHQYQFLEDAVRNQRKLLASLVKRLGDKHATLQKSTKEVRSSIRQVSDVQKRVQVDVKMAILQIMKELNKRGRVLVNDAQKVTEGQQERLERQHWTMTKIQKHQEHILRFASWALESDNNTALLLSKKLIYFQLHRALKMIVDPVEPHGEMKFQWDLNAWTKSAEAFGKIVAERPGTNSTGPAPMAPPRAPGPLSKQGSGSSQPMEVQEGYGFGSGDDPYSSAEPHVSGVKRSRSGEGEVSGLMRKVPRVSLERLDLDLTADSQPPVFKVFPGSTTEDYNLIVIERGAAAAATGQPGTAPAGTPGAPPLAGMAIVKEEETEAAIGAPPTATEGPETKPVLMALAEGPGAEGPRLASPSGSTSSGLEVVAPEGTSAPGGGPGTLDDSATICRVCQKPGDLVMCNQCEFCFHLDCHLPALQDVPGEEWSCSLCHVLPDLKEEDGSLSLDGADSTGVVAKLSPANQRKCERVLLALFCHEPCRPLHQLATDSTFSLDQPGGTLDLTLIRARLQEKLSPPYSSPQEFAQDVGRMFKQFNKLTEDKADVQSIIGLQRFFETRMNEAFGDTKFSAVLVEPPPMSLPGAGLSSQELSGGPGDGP
UniProt P55854, residues 1-92: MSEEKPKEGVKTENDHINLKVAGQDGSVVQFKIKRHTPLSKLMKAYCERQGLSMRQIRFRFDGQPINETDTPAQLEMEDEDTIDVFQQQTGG

| binding | Substance |
| --- | --- |
| binds | MYCBP2 (from UniProt O75592 1-4678) (enzyme) |
| binds | TRIM28 (from UniProt Q13263 1-835) (enzyme) |
| binds | SUMO3 (from UniProt P55854 1-92) |

— article PMC11610139
